# In PMC7138817, “The [4Fe-4S] cluster of sulfurtransferase TtuA desulfurizes TtuB during tRNA modification in Thermus thermophilus” (Communications Biology, 2020):
# These are yes or no findings as the source states them, for the method shown. Some results given as binding are weak or reduced against the parent protein; the word gives no strength. Tags and fused reporters may be left off the sequences shown.
# T1: TtuA from Thermus thermophilus (HB27 strain) possessing the [4Fe-4S] cluster, co-expressed with TtuB (Thermus thermophilus (HB27 strain)) (UniProt Q72LF3)
# T1 sequence: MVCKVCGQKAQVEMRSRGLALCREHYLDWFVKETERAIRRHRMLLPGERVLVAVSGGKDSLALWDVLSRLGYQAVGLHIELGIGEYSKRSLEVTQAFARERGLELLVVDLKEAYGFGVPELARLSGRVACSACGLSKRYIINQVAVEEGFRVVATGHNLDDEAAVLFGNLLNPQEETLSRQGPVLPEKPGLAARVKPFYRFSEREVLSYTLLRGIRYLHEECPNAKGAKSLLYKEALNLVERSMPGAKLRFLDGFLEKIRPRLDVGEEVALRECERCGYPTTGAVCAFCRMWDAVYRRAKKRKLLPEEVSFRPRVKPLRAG
# B1: TtuB-COOH from Thermus thermophilus (HB27 strain), His6-tagged, co-expressed with TtuA (protein, UniProt Q72LF4 2-65)
# chain: RVVLRLPERKEVEVKGNRPLREVLEELGLNPETVVAVRGEELLTLEDEVREEDTLEVLSAISGG
# Tests used:
# [1] = target: T1, TtuA from Thermus thermophilus (HB27 strain) possessing the [4Fe-4S] cluster, co-expressed with TtuB (Thermus thermophilus (HB27 strain)); experiment: EPR spectroscopy; co-expressed TtuA-TtuB(COOH) complex as used for X-ray crystallography; temperature dependence and simulation of the spectra compared with TtuA plus TtuB-COSH; both purified
# [2] = target: T1, TtuA from Thermus thermophilus (HB27 strain) possessing the [4Fe-4S] cluster, co-expressed with TtuB (Thermus thermophilus (HB27 strain)); experiment: crystal structure; co-expressed and co-purified holo-TtuA-TtuB, 13.4 mg/ml, sitting drop vapor diffusion at 293 K, anaerobic; 0.15 M ammonium sulfate, 0.1 M Tris pH 8.0, 15% PEG 4000; crystals soaked with ATP; both purified
binder,measurement,setting,value
B1,binding,[1],binds
same,binding,[2],binds
